Laboratory results reported in article PMC4540712 (EJNMMI Research, 2015).

Assay: general procedure: Fmoc solid-phase peptide synthesis; Rink amide MBHA; HATU
Conditions: whole synthesis

Leu-Sta-His-Gly-Val-Ala-Trp-Gln-D-Phe-4-amino-1-carboxymethyl-piperidine-4-pentynoic acid
isolated yield: 71%
